From PubChem BioAssay AID1347076 (National Center for Advancing Translational Sciences (NCATS), 2019)
Out of some 400,000 compounds screened, about 13,000 (3.2%) were called active. The inconclusive results got no clear call from the source; some entries with a clear call stand among them for comparison. Calls follow the shape of the dose curve; as a rule, active = well fitted cell-killing curve with a large enough effect; inconclusive = small, poorly fitted or top-dose-only effect, or effect the other way; inactive = flat fitted curve, though single readings scatter. A potency beside an inconclusive call is a rough fit, not a confirmed value.

Test: qHTS assay for MDR1-selective chemotherapeutics: Primary screen using the drug-selected MDR subline cells KB-V1; also: nearly all actives have a fitted effect of over 60% in size
Settings: KB-V1 MDR cells viability, CellTiter-Glo, 72 h; activity change, negative = cytotoxicity: at 46.1 µM (top of the series)
Summary of the method: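 qHTS viability screen in drug-selected KB-V1 MDR cells: 72 h compound treatment at 37 degrees C, ATP luminescence end point.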
% is scaled to controls: 0 for no effect and ±100 for the full control effect; potency is read from the fitted curve at half-maximal effect.

| SMILES | activity change, negative = cytotoxicity | Potency |
| --- | --- | --- |
| Cc1ccccc1S(=O)(=O)N1C(c2ccc(Cl)cc2)CC=C(C(=O)O)C1c1cccc(Cl)c1 (stereo unspecified) | inactive: -13.3% | – |
| CCN1CCN(S(=O)(=O)c2cc(OCC(=O)NC3CCCCC3)c(C)cc2Cl)CC1 | – | inconclusive: 4.61 µM [cytotoxic, full curve, poor fit] |
| OCCn1c(SCCOc2ccccc2F)nc2ccccc21 | inactive: -7.96% | – |
| O=C1C=C(c2ccc(-c3ccccc3)c(F)c2)C[C@@H](c2ccc(Cl)cc2)C1 | inactive: 48.5% | – |
| COc1cc2ccc(C(C)=NOC(C)=O)cc2cc1OC | – | active: 2.06 µM |
| O=C(CN1CCN(c2nc(-c3ccc(F)cc3)cs2)CC1)Nc1ccc2c(c1)OCO2 | – | inconclusive: 23.1 µM [cytotoxic, single point] |
| COc1ccc([N+](=O)[O-])cc1NC(=O)C1CCCN1S(=O)(=O)c1cccs1 (stereo unspecified) | – | inconclusive: 16.4 µM [cytotoxic, single point] |
| Cc1ccc(N(CC(=O)N2CCCCCC2)S(=O)(=O)c2ccccc2)cc1 | – | inconclusive: 4.11 µM [cytotoxic, partial curve] |
| Cc1ccc(C(=O)Nc2ccc(S(=O)(=O)N3CCc4ccccc4C3)cc2)o1 | – | active: 14.6 µM |
| Cc1cc(C)c2nc(N3CCC(C(=O)N4CCCC4)CC3)sc2c1 | – | inconclusive: 9.2 µM [cytotoxic, partial curve] |
| CCC(C)c1ccc(NC(=O)NCc2cccnc2)cc1 (stereo unspecified) | – | inconclusive: 11.6 µM [cytotoxic, partial curve, poor fit] |
| CN(C(=O)COC(=O)c1ccccc1NCCO)C1CCS(=O)(=O)C1 (stereo unspecified) | inactive: 1.28% | – |
| CC1(C)CC(=O)C=C(C(=O)N2CCCC(C(=O)c3cccc(Cl)c3)C2)O1 (stereo unspecified) | – | inconclusive: 6.51 µM [cytotoxic, partial curve] |
| CCOC(=O)[C@]12CCC=C1N(Cc1ccc3c(c1)OCO3)C(=O)[C@H](CC(=O)N1CCC(c3ccccc3)CC1)C2 | – | inconclusive: 10.3 µM [cytotoxic, partial curve] |
| Cc1ccc(C)c(OCCn2ccnc2)c1 | inactive: 3.6% | – |
| CN(C(=O)c1cc2c(s1)-c1ccc(Cl)cc1SC2)c1cccc(C(F)(F)F)c1 | inactive: -9.04% | – |
| O=C(N/N=C/c1c(O)ccc2ccccc12)c1ccc[n+](CCO)c1 | – | inconclusive: 29.1 µM [cytotoxic, single point] |
| COc1cc2c(cc1OC)C(c1ccccc1O)NCC2 (stereo unspecified) | – | inconclusive: 14.6 µM [rising, partial curve] |
| COc1cc(NC(=O)CCc2c(C)nc3nc(C)nn3c2C)cc(OC)c1 | inactive: 2.64% | – |
| CC(C)c1nc2c(c(=O)n(C)c(=O)n2C)n1C | inactive: 6.66% | – |
| COc1cccc(C#Cc2c(C=O)n(C)c3ccccc23)c1 | – | inconclusive: 0.58 µM [rising, full curve, poor fit] |
| COc1cccc(-c2nnn(CC(=O)N(C3CCCCC3)C3CCS(=O)(=O)C3)n2)c1 (stereo unspecified) | inactive: 21.7% | – |
| O=c1[nH]ncc(N/N=C/c2ccccc2)c1Cl | – | inconclusive: 1.84 µM [cytotoxic, full curve, poor fit] |

| SMILES | activity change, negative = cytotoxicity | Potency |
| --- | --- | --- |
| FC(F)(F)c1cccc(NC(=S)NC(c2ccccc2)c2ccccc2)c1 | – | inconclusive: 25.9 µM [cytotoxic, single point] |
| CC1CCCCC12NC(=O)N(CC(=O)N1CCN(S(=O)(=O)/C=C/c3ccccc3)CC1)C2=O (stereo unspecified) | inactive: 2.92% | – |
| CC(C)Cc1nnc(NC(=O)CCC(=O)NCCc2ccccc2)s1 | inactive: 26% | – |
| Fc1ccc(/C=N/Nc2ncnc3nc[nH]c23)cc1F | – | inconclusive: 6.51 µM [cytotoxic, partial curve, poor fit] |
| COC(=O)c1c(NC(=O)CC2Nc3cc(C)c(C)cc3NC2=O)sc(C)c1C (stereo unspecified) | – | inconclusive: 18.4 µM [rising, partial curve, poor fit] |
| CC(=O)c1cccc(NS(=O)(=O)c2c(C)noc2C)c1 | inactive: 0% | – |
| CCOc1ccc(N=Cc2c(O)c3ccccc3oc2=O)cc1 | inactive: -0.782% | – |
| CCOC(=O)C(=NC(C)CC)NNc1ccc(Br)cc1 (stereo unspecified) | inactive: -3.37% | – |
| CCN(CC)CC(O)COC(c1ccccc1)c1ccccc1 (stereo unspecified) | inactive: -2.49% | – |
| N/C(=N\OC(=O)c1ccc(F)cc1)c1nonc1N | – | inconclusive: 3.26 µM [rising, full curve] |
| COc1ccc(-n2cnnc2SCC(=O)NC2CCCc3ccccc32)cc1 (stereo unspecified) | – | inconclusive: 20.6 µM [cytotoxic, partial curve, poor fit] |
| CCN(CC)S(=O)(=O)c1cc(C(=O)Nc2cc(C)[nH]n2)ccc1Cl | – | inconclusive: 20.6 µM [cytotoxic, single point] |
| CCOc1ccc(-c2cc(-c3nc(-c4cc(OC)c(OC)c(OC)c4)no3)[nH]n2)cc1 | inactive: 5.89% | – |
| COc1ccc(OCCCC(=O)Nc2cccc([N+](=O)[O-])c2C)cc1 | – | inconclusive: 20.6 µM [cytotoxic, single point] |
| Clc1ccc(CNc2nnnn2-c2ccccc2)c(Cl)c1 | – | inconclusive: 13 µM [cytotoxic, partial curve, poor fit] |
| CCCCN(C)CCN1C(=O)C2C(C(=O)Nc3ccc(Cl)cc3)C3C=CC2(O3)C1C(=O)NC1CCCCC1 (stereo unspecified) | inactive: 1.64% | – |
| COc1ccc(NC(=O)C2CCCN2S(=O)(=O)c2cccs2)c([N+](=O)[O-])c1 (stereo unspecified) | – | inconclusive: 7.31 µM [cytotoxic, partial curve, poor fit] |
| COc1ccc(N2C(=O)CC(Sc3n[nH]c(-c4cccc(C)c4)n3)C2=O)cc1 (stereo unspecified) | – | inconclusive: 29.1 µM [cytotoxic, single point] |
| CCN(c1ccc(NC(=O)COC(=O)C(C)N=C2NS(=O)(=O)c3ccccc32)cc1)C(C)C (stereo unspecified) | – | inconclusive: 1.84 µM [rising, partial curve] |
| Brc1c(-c2ccccc2)nc2n1Cc1ccccc1-2 | – | inconclusive: 25.9 µM [cytotoxic, single point] |
| NC(=O)CSc1nc2cc(S(=O)(=O)N3CCOCC3)ccc2o1 | inactive: 24.3% | – |
| CSc1ccccc1NC(=O)COc1ccc(Cl)cc1C | – | active: 13 µM |
| O=C(CN1C(=O)c2ccccc2C1=O)NCC(=O)OCC(=O)c1cccc([N+](=O)[O-])c1 | – | inconclusive: 16.4 µM [rising, partial curve] |

A draw from above in order of length of the SMILES, ascending:

| SMILES | activity change, negative = cytotoxicity | Potency |
| --- | --- | --- |
| Brc1c(-c2ccccc2)nc2n1Cc1ccccc1-2 | – | inconclusive: 25.9 µM [cytotoxic, single point] |
| CCOC(=O)C(=NC(C)CC)NNc1ccc(Br)cc1 (stereo unspecified) | inactive: -3.37% | – |
| COc1ccc(OCCCC(=O)Nc2cccc([N+](=O)[O-])c2C)cc1 | – | inconclusive: 20.6 µM [cytotoxic, single point] |
| CCN(CC)S(=O)(=O)c1cc(C(=O)Nc2cc(C)[nH]n2)ccc1Cl | – | inconclusive: 20.6 µM [cytotoxic, single point] |
| COc1ccc(N2C(=O)CC(Sc3n[nH]c(-c4cccc(C)c4)n3)C2=O)cc1 (stereo unspecified) | – | inconclusive: 29.1 µM [cytotoxic, single point] |
| CCN(c1ccc(NC(=O)COC(=O)C(C)N=C2NS(=O)(=O)c3ccccc32)cc1)C(C)C (stereo unspecified) | – | inconclusive: 1.84 µM [rising, partial curve] |
| O=C(CN1C(=O)c2ccccc2C1=O)NCC(=O)OCC(=O)c1cccc([N+](=O)[O-])c1 | – | inconclusive: 16.4 µM [rising, partial curve] |
| CCCCN(C)CCN1C(=O)C2C(C(=O)Nc3ccc(Cl)cc3)C3C=CC2(O3)C1C(=O)NC1CCCCC1 (stereo unspecified) | inactive: 1.64% | – |
